In patent US20170165366A1:
No constants are given. Whether binding was seen depends on the method and setting.

What follows are binders tested against cynomolgus monkey TIGIT-His (cynomolgus monkey) (assay: BLI (ForteBio), IgG on AHQ sensor, single antigen concentration).

binding	Binder
no binding (tested: 100 nM antigen)	MAB19-IgG4 (antibody, V domains shown) VH: QVQLVQSGAEVKKPGASVKVSCKASGYTFTSHYMGWVRQAPGQGLEWMGVINPSMGATSYAQKFQGRVTMTRDTSTSTVYMELSSLRSEDTAVYYCARLHVSGSYYPAYLDYWGQGTMVTVSS VL: EIVMTQSPATLSVSPGERATLSCRASQSVSSNLAWYQQKPGQAPRHLIYGASTRATGIPARFSGSGSGTEFTLTISSLQSEDFAVYYCQQYIVFPWTFGGGTKVEIKR
no binding (tested: 100 nM antigen)	MAB20-IgG4 (antibody, V domains shown) VH: QVQLVQSGAEVKKPGASVKVSCKASGYTFTSHYMGWVRQAPGQGLEWVGIINPSMGATSYAQKFQGRVTMTRDTSTSTVYMELSSLRSEDTAVYYCARLHVSGSYYPAYLDYWGQGTMVTVSS VL: EIVMTQSPATLSVSPGERATLSCRASQSVSSNLAWYQQKPGQAPRHLIYGASTRATGIPARFSGSGSGTEFTLTISSLQSEDFAVYYCQQYIVFPWTFGGGTKVEIKR
no binding (tested: 100 nM antigen)	MAB21-IgG4 (antibody, V domains shown) VH: QVQLVQSGAEVKKPGASVKVSCKASGYTFTSHYMGWVRQAPGQGLEWMGIINPSMGATSYTQKFRGRVTMTRDTSTSTVYMELSSLRSEDTAVYYCARLHVSGSYYPAYLDYWGQGTMVTVSS VL: EIVMTQSPATLSVSPGERATLSCRASQSVSSNLAWYQQKPGQAPRHLIYGASTRATGIPARFSGSGSGTEFTLTISSLQSEDFAVYYCQQYIVFPWTFGGGTKVEIKR
